Among the data in the supplement of paper PMC10398353 are normalized bacterial growth values, retold here.

“And” between values parts separate entries of the source, which are not always exact repeats. Equal values may be shown once. Where a name gives a salt, the structure may show the parent alone. ± gives the standard deviation of the averaged measurements. Some of the results follow. The data scatter; read single values as rough.

In the assay the test system is Salmonella enterica serovar Typhimurium ST313 D23580. Kind of assay: normalized bacterial growth (OD600 20 h minus 0 h, interquartile-mean normalized) (fraction of plate interquartile mean); higher = more bacterial growth (less inhibition). The settings on record: LPM (pH 5.8, low phosphate, low Mg2+), concentration: 10 µM, temperature: 37 °C.
The compound `CCCNC[C@H](O)COc1ccccc1C(=O)CCc1ccccc1` [(S)-(-)-propafenone hydrochloride] displayed a normalized bacterial growth of 0.796. `COc1ccc(-c2cc(=O)c3ccccc3o2)cc1`: the normalized bacterial growth turned out to be 0.577.

Take `N=C(N)NC(=N)NCCc1ccccc1`: the normalized bacterial growth came to 0.861. In the case of `C[C@H]1O[C@H](O[C@H]2[C@H](O)[C@@H](O)[C@@H](O[C@H]3[C@H](O)[C@@H](O)C(O)O[C@@H]3CO)O[C@@H]2CO)[C@H](O)[C@@H](O)[C@@H]1N[C@H]1C=C(CO)[C@@H](O)[C@H](O)[C@H]1O` (some centres undefined), the normalized bacterial growth worked out at 1.28. In turn, `CC(C)(C=O)Cc1cc(C(C)(C)C)c(O)c(C(C)(C)C)c1` showed a normalized bacterial growth of 1.08. In turn, `CC(C)(CO)[C@@H](O)C(=O)NCCC(=O)NCCSSCCNC(=O)CCNC(=O)[C@H](O)C(C)(C)CO` yielded a normalized bacterial growth of 0.969. Turning to `CN1CCN(CC/C=C2/c3ccccc3Sc3ccc(S(=O)(=O)N(C)C)cc32)CC1` [Thiothixene hydrochloride], the normalized bacterial growth is 0.995. Regarding `CN1CCN(CC/C=C2/c3ccccc3Sc3ccc(S(=O)(=O)N(C)C)cc32)CC1`, the normalized bacterial growth came out at 0.933. As for `NC1(C(=O)O)CCCCC1` [1-Amino-1-cyclohexanecarboxylic acid hydrochloride], the normalized bacterial growth was 0.748. The value for `NNCCc1ccccc1` [Phenelzine sulfate] was 0.63; that for `CC(=O)S[C@@H]1CC2=CC(=O)CC[C@]2(C)[C@H]2CC[C@@]3(C)[C@@H](CC[C@@]34CCC(=O)O4)[C@H]12` [Spironolactone] was 0.951 ± 0.1. To `CC(=O)S[C@@H]1CC2=CC(=O)CC[C@]2(C)[C@H]2CC[C@@]3(C)[C@@H](CC[C@@]34CCC(=O)O4)[C@H]12` belongs 0.892. To `CCCc1cc(C(N)=S)ccn1` belongs 0.992; to `CC(Cc1cccc(C(F)(F)F)c1)NCCOC(=O)c1ccccc1` (centres undefined), 0.511; to `CNc1ncnc2c1ncn2[C@@H]1O[C@H](CO)[C@@H](O)[C@H]1O` [N6-Methyladenosine], 1.04. In the case of `CNc1ncnc2c1ncn2[C@@H]1O[C@H](CO)[C@@H](O)[C@H]1O` [N6-methyladenosine], the normalized bacterial growth was determined as 1.18.

With `N[C@@H](CC(=O)O)C(=O)O` [L-Aspartic acid], the normalized bacterial growth turned out to be 0.862. The value for `C[C@@H](O)[C@H]1C(=O)N2C(C(=O)O)=C(SCCNC=N)C[C@H]12` [Imipenem] was 0.819; that for `c1ccc2c(c1)CCCC2C1=NCCN1` (centres undefined) [Tetrahydrozoline hydrochloride] was 1.17; that for `C=C(C)[C@@H]1CC[C@]2(C(=O)O)CC[C@]3(C)[C@H](CC[C@@H]4[C@@]5(C)CC[C@H](O)C(C)(C)[C@@H]5CC[C@]43C)[C@@H]12` was 1.0001 ± 0.00016.

`O=C(/C=C/c1ccc(O)c(O)c1)c1ccc(O[C@@H]2O[C@H](CO)[C@@H](O)[C@H](O)[C@H]2O)c(O)c1O`: the normalized bacterial growth amounted to 0.972. The value for `Oc1ccc2c(c1)OC[C@]1(O)Cc3cc(O)c(O)cc3[C@H]21` was 0.573.

In the case of `CC(C)=CCC[C@](C)(O)[C@H]1CC[C@]2(C)[C@@H]1CC[C@@H]1[C@@]3(C)CCC(=O)C(C)(C)[C@@H]3CC[C@]12C`, the normalized bacterial growth turned out to be 0.993.

In turn, `CN=c1nc(-c2ccccc2)n(-c2ccccc2)s1` displayed a normalized bacterial growth of 0.836.

Turning to `O=C1NCCN1c1ncc([N+](=O)[O-])s1` [Niridazole], the normalized bacterial growth is 0.0464. The compound `C1N2CN3CN1CN(C2)C3` gave a normalized bacterial growth of 1.07. As for `O=C(O)C1=C[C@@H](O)[C@@H](O)[C@H](O)C1`, the normalized bacterial growth was found to be 1.11. The value for `CCCCCN(C)CCC(O)(P(=O)(O)O)P(=O)(O)O` [Ibandronate sodium] was 1.07. `CC(C)=CCC/C(C)=C/CC/C(C)=C/CC/C(C)=C/C(=O)O` had a normalized bacterial growth of 0.514. In the case of `CCCCCC1C(=O)CCC1CC(=O)OC` (centres undefined), the normalized bacterial growth stood at 0.909. The compound `Nc1ccc(S(=O)(=O)NC(=O)c2ccccc2)cc1` displayed a normalized bacterial growth of 1.37. The value for `C[N+](C)(C)CCOP(=O)(O)OP(=O)([O-])OC[C@H]1O[C@@H](n2ccc(N)nc2=O)[C@H](O)[C@@H]1O` [Citicoline sodium] was 1.05. With `C[N+](C)(C)CCOP(=O)(O)OP(=O)([O-])OC[C@H]1O[C@@H](n2ccc(N)nc2=O)[C@H](O)[C@@H]1O`, the normalized bacterial growth is 1.12. In turn, `CC(C)c1nc(N(C)S(C)(=O)=O)nc(-c2ccc(F)cc2)c1/C=C/[C@@H](O)C[C@@H](O)CC(=O)O` registered a normalized bacterial growth of 0.983. Turning to `CCNC(=O)[C@H]1O[C@@H](n2cnc3c(N)nc(NCCc4ccc(CCC(=O)O)cc4)nc32)[C@H](O)[C@@H]1O`, the normalized bacterial growth is 1.13. `CNCCNS(=O)(=O)c1cccc2cnccc12` [H-8 dihydrochloride] yielded a normalized bacterial growth of 0.968. The value for `O=c1cc(-c2ccc(O)cc2)oc2cc(O[C@@H]3O[C@H](CO)[C@@H](O)[C@H](O)[C@H]3O[C@@H]3OC[C@](O)(CO)[C@H]3O)cc(O)c12` was 0.926; that for `C[C@](N)(Cc1ccc(O)cc1)C(=O)O` [L-alpha-Methyl-p-tyrosine] was 1.26; that for `CS(=O)(=O)c1ccc([C@@H](O)[C@@H](CF)NC(=O)C(Cl)Cl)cc1` was 0.071. The value for `CS(=O)(=O)c1ccc([C@@H](O)[C@@H](CF)NC(=O)C(Cl)Cl)cc1` [Florfenicol] was 0.012; that for `CCN(CC)CCCC(C)Nc1ccnc2cc(Cl)ccc12` (centres undefined) [Chloroquine diphosphate] was 1.23; that for `Oc1ccc(C2CNCCc3c2cc(O)c(O)c3Cl)cc1` (centres undefined) [Fenoldopam bromide] was 1.19. Regarding `CC(=O)N[C@@H](Cc1c[nH]c2ccccc12)C(=O)O`, the normalized bacterial growth was 1.14. Take `CC(C(=O)O)c1cccc(Oc2ccccc2)c1` (centres undefined): the normalized bacterial growth is 1.27. Regarding `CC(C(=O)O)c1cccc(Oc2ccccc2)c1` (centres undefined) [Fenoprofen calcium salt dihydrate], the normalized bacterial growth came to 1.11. With `O=C(O)CN(CCN(CC(=O)O)CC(=O)O)CC(=O)O.[Na+].[Na+].[Na+]`, the normalized bacterial growth worked out at 0.271. For `O=C1OC(c2ccc(O)cc2)(c2ccc(O)cc2)c2ccccc21`, the normalized bacterial growth is 1.07. For `COc1cc(OC)c2c(=O)cc(-c3ccccc3)oc2c1`, the normalized bacterial growth came out at 0.737. `COc1ccc2c(C)cc(=O)oc2c1` yielded a normalized bacterial growth of 1.05. The value for `COC(=O)C[C@H]1C(C)(C)[C@@H](O)[C@@H]2CC3=C4C=C(OC)O[C@@H](c5ccoc5)[C@]4(C)CCC3[C@@]1(C)C2=O` (stereo partly drawn) [3-DEOXO-3beta-HYDROXYMEXICANOLIDE 16-ENOL ETHER] was 0.703; that for `O=C1NC(=O)C(c2ccccc2[N+](=O)[O-])=C1Nc1ccc(O)c(Cl)c1` was 1.23; that for `CCCc1ncc(C[n+]2ccccc2C)c(N)n1` was 1.18. The value for `C=CC(C)(O)CCC=C(C)CCC=C(C)C` (mixture of isomers) was 0.918; that for `CC1(C)CCC(NC(=O)[C@@H](N)CCC(=O)O)CC1` was 1.14; that for `O=C(O)C1CCNCC1` [Isonipecotic acid] was 1.2. To `COc1cc(O)c(C(=O)/C=C/c2ccc(OC)c(O)c2)c(OC)c1` belongs 0.432. Take `CC(CCC(=O)O)[C@H]1CCC2C3C[C@H](O)[C@@H]4C[C@H](O)CC[C@]4(C)C3CC[C@@]21C` (stereo partly drawn) [alpha-HYDROXYDEOXYCHOLIC ACID]: the normalized bacterial growth came to 1.2.

For `OC[C@@H](O)[C@@H](O)[C@H](O)[C@H](O)CO`, the normalized bacterial growth was found to be 1.1.

`C=CCc1ccc(O)c(OC)c1` yielded a normalized bacterial growth of 1.1. `CC(=O)OCC(=O)NCCCOc1cccc(CN2CCCCC2)c1` [Roxatidine Acetate HCl]: the normalized bacterial growth turned out to be 0.892. In turn, `CCn1cc(C(=O)O)c(=O)c2cc(F)c(N3CCNCC3)nc21` showed a normalized bacterial growth of 1.27. To `CC1(C)CCC=[N+]1[O-]` ["5,5-Dimethyl-1-pyrroline-N-oxide"] belongs 1.09; to `c1ccc(CC2=NCCN2)cc1`, 0.688; to `NCCCCC(=O)O` [5-Aminovaleric acid hydrochloride], 1.05. Compound `OCCN1CCN(CCCN2c3ccccc3Sc3ccc(C(F)(F)F)cc32)CC1` [Fluphenazine dihydrochloride] came in with a normalized bacterial growth of 1.18. Take `CC(C)(Oc1ccc(CCNC(=O)c2ccc(Cl)cc2)cc1)C(=O)O`: the normalized bacterial growth stood at 0.925.

As for `CC1=CC(=O)[C@H]2C(C)(C)CCC[C@]2(C)[C@@]1(O)CCc1ccoc1`, the normalized bacterial growth is 0.901. Compound `CC(=O)OCC(=O)[C@H]1CC[C@H]2[C@@H]3CC=C4C[C@@H](O)CC[C@]4(C)[C@H]3CC[C@]12C` had a normalized bacterial growth of 0.869. Compound `Clc1ccc2c(c1)C(N1CCNCC1)=Nc1ccccc1O2` [Amoxapine] gave a normalized bacterial growth of 1.02. `CC(C)[C@@H](C)/C=C/[C@@H](C)[C@H]1CC[C@H]2C3=CC=C4C[C@@H](O)CC[C@]4(C)[C@H]3CC[C@]12C`: the normalized bacterial growth is 0.961. Regarding `O=C(O)CCCc1c[nH]c2ccccc12`, the normalized bacterial growth was 1.17. Compound `O=C1c2ccccc2C(=O)C1c1ccccc1` yielded a normalized bacterial growth of 1.49. Compound `O=C(O)CCc1nc(-c2ccccc2)c(-c2ccccc2)o1` [Oxaprozin] had a normalized bacterial growth of 1.04. Take `CC(C(=O)O)c1ccc(CC2CCCC2=O)cc1` (centres undefined) [loxoprofen]: the normalized bacterial growth turned out to be 0.98. With `CC[C@H]1OC(=O)[C@H](C)[C@@H](O[C@H]2C[C@@](C)(OC)[C@@H](O)[C@H](C)O2)[C@H](C)[C@@H](O[C@@H]2O[C@H](C)C[C@H](N(C)C)[C@H]2O)[C@](C)(O)C[C@@H](C)C(=O)[C@H](C)[C@@H](O)[C@]1(C)O`, the normalized bacterial growth is 1.14. The value for `CC1=C(/C=C/C(C)=C/C=C/C(C)=C/C=C/C=C(C)/C=C/C=C(C)/C=C/C2=C(C)CCCC2(C)C)C(C)(C)CCC1` [beta-CAROTENE] was 0.963. With `Cc1c(Cl)cccc1Nc1ccccc1C(=O)O`, the normalized bacterial growth was 0.926. As for `CCCSc1ccc2[nH]c(NC(=O)OC)nc2c1` [Albendazole], the normalized bacterial growth is 0.918. For the compound `CCCSc1ccc2[nH]c(NC(=O)OC)nc2c1`, the normalized bacterial growth was 1.01. `C[C@@H]1CC[C@H]2C(C)(C)[C@H]3C[C@@]12CC[C@@]3(C)O` had a normalized bacterial growth of 1.15. `CO[C@H]1/C=C/O[C@@]2(C)Oc3c(C)c(O)c4c(O)c(c(/C=N/N5CCN(C)CC5)c(O)c4c3C2=O)NC(=O)/C(C)=C\C=C\[C@H](C)[C@H](O)[C@@H](C)[C@@H](O)[C@@H](C)[C@H](OC(C)=O)[C@@H]1C`: the normalized bacterial growth is 1.31 and 1. To `COc1cc(C)c(C(=O)O)c(O)c1` belongs 1.1; to `Cc1ccc(N(CC2=NCCN2)c2cccc(O)c2)cc1`, 1. The value for `Cc1ccc(N(CC2=NCCN2)c2cccc(O)c2)cc1` [Phentolamine mesylate] was 0.821.
